Laboratory results as given in US20250281538A1 (US Dept. of Health and Human Services, published 2025).
These are yes or no findings as the source states them, for the method shown. Some entries that bind do so weakly or less than the wild type.

T1: GPC2 antigen (UniProt Q8N158 24-553, limits assumed)
T1 construct: also called glypican-2
T1 sequence (looked up): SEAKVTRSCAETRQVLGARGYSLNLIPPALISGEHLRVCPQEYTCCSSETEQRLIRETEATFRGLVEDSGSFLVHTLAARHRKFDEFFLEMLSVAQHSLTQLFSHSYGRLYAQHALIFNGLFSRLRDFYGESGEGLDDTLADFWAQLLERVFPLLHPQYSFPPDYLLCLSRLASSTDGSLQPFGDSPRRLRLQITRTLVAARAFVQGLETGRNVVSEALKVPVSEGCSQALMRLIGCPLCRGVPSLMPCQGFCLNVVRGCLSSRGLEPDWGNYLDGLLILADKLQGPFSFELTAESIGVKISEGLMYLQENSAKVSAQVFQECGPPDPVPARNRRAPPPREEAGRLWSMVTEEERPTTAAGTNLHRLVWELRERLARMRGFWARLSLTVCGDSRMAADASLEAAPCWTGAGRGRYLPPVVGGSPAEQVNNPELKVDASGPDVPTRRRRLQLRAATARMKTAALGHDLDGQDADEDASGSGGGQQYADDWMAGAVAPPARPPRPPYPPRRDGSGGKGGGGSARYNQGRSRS

B1: CT3 CAR (CT3-CD28HTM) (other)
VH: EVQLQQSGPELVKPGASVKMSCKASRFTFTDYNIHWVKQSPGKTLEWIGYINPNNGDIFYKQKFNGKATLTINKSSNTAYMELRSLTSEDSAVYYCVRSSNIRYTFDRFFDVWGTGTTVTVSS
VL: ENVLTQSPAIMSASLGEKVTMSCRASSSVNYIYWYQQKSDASPKLWIYYTSNLAPGVPARFSGSGSGNSYSLTISSMEGEDAATYYCQQFSSSPSTFGTGTKLELK
notes: Only the CT3 VH and VL are tied to the antibody
B2: hCT3 CAR (hCT3-1 CD28HTM) (other)
VH: QVQLVQSGAEVKKPGASVKVSCKASRFTFTDYNIHWVRQAPGQGLEWIGYINPNNGDIFYKQKFNGRVTLTADKSTSTAYMELSSLTSEDTAVYYCVRSSNIRYTFDRFFDVWGQGTLVTVSS
VL: DVVMTQSPLSLPVTPGEPASISCRASSSVNYIYWYLQKPGQSPQLWIYYTSNLAPGVPDRFSGSGSGTDFTLKISRVEAEDVGVYYCQQFSSSPSTFGQGTKLEIK
notes: only hCT3-1 VH and VL are tied to the antibody; also called hCT3-CD28HTM
B3: ART-CT3-CT3 AbTCR+CSR (other)
chain 1: ENVLTQSPAIMSASLGEKVTMSCRASSSVNYIYWYQQKSDASPKLWIYYTSNLAPGVPARFSGSGSGNSYSLTISSMEGEDAATYYCQQFSSSPSTFGTGTKLELKRSRGGGGSGGGGSGGGGSLEMAEVQLQQSGPELVKPGASVKMSCKASRFTFTDYNIHWVKQSPGKTLEWIGYINPNNGDIFYKQKFNGKATLTINKSSNTAYMELRSLTSEDSAVYYCVRSSNIRYTFDRFFDVWGTGTTVTVSSEQKLISEEDLAAATGAPPLGTQPDCNPTPENGEAPASTSPTQSLLVDSQASKTLPIPTSAPVALSSTGKPVLDAGPVLFWVILVLVVVVGSSAFLLCHRRACRKRIRQKLHLCYPVQTSQPKLELVDSRPRRSSTQLRSGASVTEPVAEERGLMSQPLMETCHSVGAAYLESLPLQDASPAGGPSSPRDLPEPRVSTEHTNNKIEKIYIMKADTVIVGTVKAELPEGRGLAGPAEPELEEELEADHTPHYPEQETEPPLGSCSDVMLSVEEEGKEDPLPTAASGK
chain 2: EVQLQQSGPELVKPGASVKMSCKASRFTFTDYNIHWVKQSPGKTLEWIGYINPNNGDIFYKQKFNGKATLTINKSSNTAYMELRSLTSEDSAVYYCVRSSNIRYTFDRFFDVWGTGTTVTVSSASTKGPSVFPLAPSSKSTSGGTAALGCLVKDYFPEPVTVSWNSGALTSGVHTFPAVLQSSGLYSLSSVVTVPSSSLGTQTYICNVNHKPSNTKVDKRVEPKSCEVKTDSTDHVKPKETENTKQPSKSCHKPKAIVHTEKVNMMSLTVLGLRMLFAKTVAVNFLLTAKLFFL
chain 3: ENVLTQSPAIMSASLGEKVTMSCRASSSVNYIYWYQQKSDASPKLWIYYTSNLAPGVPARFSGSGSGNSYSLTISSMEGEDAATYYCQQFSSSPSTFGTGTKLELKRTVAAPSVFIFPPSDEQLKSGTASVVCLLNNFYPREAKVQWKVDNALQSGNSQESVTEQDSKDSTYSLSSTLTLSKADYEKHKVYACEVTHQGLSSPVTKSFNRGECPIKTDVITMDPKDNCSKDANDTLLLQLTNTSAYYMYLLLLLKSVVYFAIITCCLLRRTAFCCNGEKS
notes: AbTCR heterodimer and CSR are expressed together on one cell
B4: ART-hCT3-1-hCT3-1 AbTCR+CSR (other)
chain 1: DVVMTQSPLSLPVTPGEPASISCRASSSVNYIYWYLQKPGQSPQLWIYYTSNLAPGVPDRFSGSGSGTDFTLKISRVEAEDVGVYYCQQFSSSPSTFGQGTKLEIKRSRGGGGSGGGGSGGGGSLEMAQVQLVQSGAEVKKPGASVKVSCKASRFTFTDYNIHWVRQAPGQGLEWIGYINPNNGDIFYKQKFNGRVTLTADKSTSTAYMELSSLTSEDTAVYYCVRSSNIRYTFDRFFDVWGQGTLVTVSSEQKLISEEDLAAATGAPPLGTQPDCNPTPENGEAPASTSPTQSLLVDSQASKTLPIPTSAPVALSSTGKPVLDAGPVLFWVILVLVVVVGSSAFLLCHRRACRKRIRQKLHLCYPVQTSQPKLELVDSRPRRSSTQLRSGASVTEPVAEERGLMSQPLMETCHSVGAAYLESLPLQDASPAGGPSSPRDLPEPRVSTEHTNNKIEKIYIMKADTVIVGTVKAELPEGRGLAGPAEPELEEELEADHTPHYPEQETEPPLGSCSDVMLSVEEEGKEDPLPTAASGK
chain 2: QVQLVQSGAEVKKPGASVKVSCKASRFTFTDYNIHWVRQAPGQGLEWIGYINPNNGDIFYKQKFNGRVTLTADKSTSTAYMELSSLTSEDTAVYYCVRSSNIRYTFDRFFDVWGQGTLVTVSSASTKGPSVFPLAPSSKSTSGGTAALGCLVKDYFPEPVTVSWNSGALTSGVHTFPAVLQSSGLYSLSSVVTVPSSSLGTQTYICNVNHKPSNTKVDKRVEPKSCEVKTDSTDHVKPKETENTKQPSKSCHKPKAIVHTEKVNMMSLTVLGLRMLFAKTVAVNFLLTAKLFFL
chain 3: DVVMTQSPLSLPVTPGEPASISCRASSSVNYIYWYLQKPGQSPQLWIYYTSNLAPGVPDRFSGSGSGTDFTLKISRVEAEDVGVYYCQQFSSSPSTFGQGTKLEIKRTVAAPSVFIFPPSDEQLKSGTASVVCLLNNFYPREAKVQWKVDNALQSGNSQESVTEQDSKDSTYSLSSTLTLSKADYEKHKVYACEVTHQGLSSPVTKSFNRGECPIKTDVITMDPKDNCSKDANDTLLLQLTNTSAYYMYLLLLLKSVVYFAIITCCLLRRTAFCCNGEKS
notes: also called ART-hCT3-hCT3; hCT3 AbTCR+CSR

Biological target: T1, GPC2 antigen
Test: flow cytometry; Jurkat T cells expressing the construct, GPC2 antigen in solution

Binder	binding
B1	binds
B2	binds
B3	binds
B4	binds
